Tested on: E. coli
Assay: Subcellular fractionation and western blot of FLAG-tagged DinQ
Format: cell-based, Escherichia coli
Conditions: 3×FLAG-tagged peptides, after IPTG induction

| Substance | intracellular localization |
| --- | --- |
| DinQ ORF2: amino acid sequence of the dinQ II polypeptide (ORF-II), 49 aa (MRRDRQWMSKRMHSHSIAWRKRVIDKAIIVLGALIALLELIRFLLQLLN; listed as Escherichia coli) | localized to the inner membrane |
| MIDKAIIVLGALIALLELIRFLLQLLN (listed as Escherichia coli) [ORF5, DinQ ORF-V peptide with N-terminal Met, form translated from GUG start codon, 27 aa] | localized to the inner membrane |
